Laboratory results from publication PMC5356568.
No constants are given. Whether binding was seen depends on the method and setting. Some binding calls cover weakened binding; strength is not graded here.

The chains behind the UniProt entries cited, without tags or fusion partners. Where a name states a change or a piece, a line headed by the entry shows the natural chain unless it says otherwise. A line that says so, or that is headed by a name, gives the form on record, which may keep a tag or linker. Residues count along the entry.
wsFGFR2c, wild-type soluble ectodomain of FGFR2IIIc (P21802, residues 147-366): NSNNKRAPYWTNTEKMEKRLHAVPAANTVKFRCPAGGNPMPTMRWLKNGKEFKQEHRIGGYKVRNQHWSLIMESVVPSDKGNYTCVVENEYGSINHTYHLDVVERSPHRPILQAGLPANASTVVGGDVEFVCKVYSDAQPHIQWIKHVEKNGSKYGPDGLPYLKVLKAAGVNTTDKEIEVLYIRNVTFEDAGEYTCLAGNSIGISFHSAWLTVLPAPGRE
msFGFR2c, Ser252Trp mutant soluble ectodomain of FGFR2IIIc (P21802-1, form named): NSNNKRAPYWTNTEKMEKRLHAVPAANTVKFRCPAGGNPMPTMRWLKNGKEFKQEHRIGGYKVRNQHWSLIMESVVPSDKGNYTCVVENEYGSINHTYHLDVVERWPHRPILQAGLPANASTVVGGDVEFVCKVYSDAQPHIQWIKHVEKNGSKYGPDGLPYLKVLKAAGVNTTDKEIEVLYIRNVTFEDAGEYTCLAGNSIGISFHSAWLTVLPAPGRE

Target: wsFGFR2c, wild-type soluble ectodomain of FGFR2IIIc (human) (UniProt P21802)
Assay: ITC; Auto-iTC200; 3 ul aliquots of 150 uM msFGFR2c into 200 ul of 20 uM wsFGFR2c, in the absence of FGF-2; 25 mM HEPES, 600 mM NaCl, 5% glycerol, pH 7.5; both purified

binding: binds weakly
Substance: msFGFR2c, Ser252Trp mutant soluble ectodomain of FGFR2IIIc (from UniProt P21802-1 147-366) (domain or fragment)
